# Test results taken from the supplement of paper PMC8728848.
# The other results are listed elsewhere or left out.
# B1: GST-Gap1 (Streptococcus parasanguinis), A1C3L5 (protein)
# chain: MFYFVPSWYNGQRQWYYDTPWWFRVKNRMTFDDSVNQVKMFLQGQEEIGLMILNYQPQLRYFLHKQNIFGIYYWSFFDDIQNITRSYTKIIHLKDLNWPEGCEFLYSPFAVVVRLKGEIFAIVNYAEDGNLHSVSFQKNGKVTKDYIFDDRGFLSSILYYDIDERPLYQDYLNINGVWQVREFLKKENDPTPILMINDFSDQTFSKKYYNGWEELIKERLAIFQNNHVENEDVFVLASDTQHNQLVSSIFKEHRKIYSFFGNRFNLENLGQDRISINDATFLVVDTEKNEELLRKTCENLVFKSIPIVRLSPFDSRLRLGHSQTVKEQIIYFHIDNIELDELYSVIAIILELMTLHLDIELRIVTFRQDFQLDLLKTWIIDFIKTNHFEDLLFKQISEGENEIEDEGEIELSRIAMECFTNENQIIKCLDTARLVIDLGIEPDLYTQIASISAGIPQINRVSSDYVIHQKNGLVISDISKLSSAIEFYFDGLFNWNEALIYAVRKMSDYTSGKILKQWKGMLKKK
# How the values were obtained:
# Assay in all cases: glycan array binding signal (z-score within array); higher = stronger binding
# Details in all cases: glycan notation: IUPAC condensed, linker removed
# [1] = molecular target: Neu5Ac(a2-3)Gal(b1-3)GlcNAc(b1-3)Gal(b1-3)GlcNAc
# Summary of the method: (§1)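 The binding signal is a Z-score computed within each array. Data were drawn from 3228 arrays in the Consortium for Functional Glycomics database, restricted to those with a known protein sequence. Scores were averaged over arrays of the same protein sequence at different concentrations or buffers, and over linkers, and negative values can be taken as non-binding.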
# [2] = molecular target: Neu5Ac(a2-3)Gal(b1-3)GlcNAc(b1-3)Gal(b1-4)GlcNAc
# Summary of the method: as §1
# [3] = molecular target: Neu5Ac(a2-3)Gal(b1-3)GlcNAc(b1-3)GalNAc
# Summary of the method: as §1
# [4] = molecular target: Neu5Ac(a2-3)Gal(b1-3)GlcNAc(b1-6)GalNAc
# Summary of the method: as §1
# [5] = molecular target: Neu5Ac(a2-3)Gal(b1-3)GlcNAc6S
# Summary of the method: as §1
# [6] = molecular target: Neu5Ac(a2-3)Gal(b1-3)[Fuc(a1-4)]GlcNAc
# Summary of the method: as §1
# [7] = molecular target: Neu5Ac(a2-3)Gal(b1-3)[Fuc(a1-4)]GlcNAc(b1-3)Gal(b1-3)[Fuc(a1-4)]GlcNAc
# Summary of the method: as §1
# [8] = molecular target: Neu5Ac(a2-3)Gal(b1-3)[Fuc(a1-4)]GlcNAc(b1-3)Gal(b1-4)[Fuc(a1-3)]GlcNAc
# Summary of the method: as §1
# [9] = molecular target: Neu5Ac(a2-3)Gal(b1-3)[GlcNAc(b1-6)]GalNAc
# Summary of the method: as §1
# [10] = molecular target: Neu5Ac(a2-3)Gal(b1-3)[Neu5Ac(a2-3)Gal(b1-4)]GlcNAc
# Summary of the method: as §1
# [11] = molecular target: Neu5Ac(a2-3)Gal(b1-3)[Neu5Ac(a2-6)]GalNAc
# Summary of the method: as §1
# [12] = molecular target: Neu5Ac(a2-3)Gal(b1-3)[Neu5Ac(a2-6)]GlcNAc(b1-3)[Fuc(a1-3)[Gal(b1-4)]GlcNAc(b1-6)]Gal(b1-4)Glc
# Summary of the method: as §1
# [13] = molecular target: Neu5Ac(a2-3)Gal(b1-3)]Neu5Ac(a2-3)Gal(b1-4)]GlcNAc
# Summary of the method: as §1
# [14] = molecular target: Neu5Ac(a2-3)Gal(b1-4)Glc
# Summary of the method: as §1
# [15] = molecular target: Neu5Ac(a2-3)Gal(b1-4)GlcNAc
# Summary of the method: as §1
# [16] = molecular target: Neu5Ac(a2-3)Gal(b1-4)GlcNAc(b1-2)Man
# Summary of the method: as §1
# [17] = molecular target: Neu5Ac(a2-3)Gal(b1-4)GlcNAc(b1-2)Man(a1-3)[GlcNAc(b1-2)Man(b1-4)GlcNAc(b1-2)Man(a1-6)]Man(b1-4)GlcNAc(b1-4)GlcNAc
# Summary of the method: as §1
# [18] = molecular target: Neu5Ac(a2-3)Gal(b1-4)GlcNAc(b1-2)Man(a1-3)[GlcNAc(b1-4)][Neu5Ac(a2-3)Gal(b1-4)GlcNAc(b1-2)Man(a1-6)]Man(b1-4)GlcNAc(b1-4)GlcNAc
# Summary of the method: as §1
# [19] = molecular target: Neu5Ac(a2-3)Gal(b1-4)GlcNAc(b1-2)Man(a1-3)[Neu5Ac(a2-3)Gal(b1-4)GlcNAc(b1-2)Man(a1-6)]Man(b1-4)GlcNAc(b1-4)GlcNAc
# Summary of the method: as §1
# [20] = molecular target: Neu5Ac(a2-3)Gal(b1-4)GlcNAc(b1-2)Man(a1-3)[Neu5Ac(a2-3)Gal(b1-4)GlcNAc(b1-2)Man(a1-6)]Man(b1-4)GlcNAc(b1-4)[Fuc(a1-6)]GlcNAc
# Summary of the method: as §1
# [21] = molecular target: Neu5Ac(a2-3)Gal(b1-4)GlcNAc(b1-2)Man(a1-3)[Neu5Ac(a2-6)Gal(b1-4)GlcNAc(b1-2)Man(a1-6)]Man(b1-4)GlcNAc(b1-4)GlcNAc
# Summary of the method: as §1
# [22] = molecular target: Neu5Ac(a2-3)Gal(b1-4)GlcNAc(b1-2)[Neu5Ac(a2-3)Gal(b1-4)GlcNAc(b1-4)]Man(a1-3)[GlcNAc(b1-4)][Neu5Ac(a2-3)Gal(b1-4)GlcNAc(b1-2)[Neu5Ac(a2-3)Gal(b1-4)GlcNAc(b1-6)]Man(a1-6)]Man(b1-4)GlcNAc(b1-4)GlcNAc
# Summary of the method: as §1
# [23] = molecular target: Neu5Ac(a2-3)Gal(b1-4)GlcNAc(b1-2)[Neu5Ac(a2-3)Gal(b1-4)GlcNAc(b1-4)]Man(a1-3)[GlcNAc(b1-4)][Neu5Ac(a2-3)Gal(b1-4)GlcNAc(b1-4)Man(a1-6)]Man(b1-4)GlcNAc(b1-4)GlcNAc
# Summary of the method: as §1
# [24] = molecular target: Neu5Ac(a2-3)Gal(b1-4)GlcNAc(b1-2)[Neu5Ac(a2-3)Gal(b1-4)GlcNAc(b1-6)]Man(a1-6)[Neu5Ac(a2-3)Gal(b1-4)GlcNAc(b1-2)Man(a1-3)][GlcNAc(b1-4)]Man(b1-4)GlcNAc(b1-4)GlcNAc
# Summary of the method: as §1
# [25] = molecular target: Neu5Ac(a2-3)Gal(b1-4)GlcNAc(b1-3)Gal
# Summary of the method: as §1
# [26] = molecular target: Neu5Ac(a2-3)Gal(b1-4)GlcNAc(b1-3)Gal(b1-3)GlcNAc
# Summary of the method: as §1
# [27] = molecular target: Neu5Ac(a2-3)Gal(b1-4)GlcNAc(b1-3)Gal(b1-4)GlcNAc
# Summary of the method: as §1
# [28] = molecular target: Neu5Ac(a2-3)Gal(b1-4)GlcNAc(b1-3)Gal(b1-4)GlcNAc(b1-2)Man(a1-3)[Neu5Ac(a2-3)Gal(b1-4)GlcNAc(b1-3)Gal(b1-4)GlcNAc(b1-2)Man(a1-6)]Man(b1-4)GlcNAc(b1-4)GlcNAc
# Summary of the method: as §1
# [29] = molecular target: Neu5Ac(a2-3)Gal(b1-4)GlcNAc(b1-3)Gal(b1-4)GlcNAc(b1-3)Gal(b1-4)GlcNAc
# Summary of the method: as §1
# [30] = molecular target: Neu5Ac(a2-3)Gal(b1-4)GlcNAc(b1-3)Gal(b1-4)GlcNAc(b1-3)Gal(b1-4)GlcNAc(b1-2)Man(a1-3)[Neu5Ac(a2-3)Gal(b1-4)GlcNAc(b1-3)Gal(b1-4)GlcNAc(b1-3)Gal(b1-4)GlcNAc(b1-2)Man(a1-6)]GalNAc
# Summary of the method: as §1
# [31] = molecular target: Neu5Ac(a2-3)Gal(b1-4)GlcNAc(b1-3)Gal(b1-4)GlcNAc(b1-3)GalNAc
# Summary of the method: as §1
# [32] = molecular target: Neu5Ac(a2-3)Gal(b1-4)GlcNAc(b1-3)Gal(b1-4)GlcNAc(b1-3)[Neu5Ac(a2-3)Gal(b1-4)GlcNAc(b1-3)Gal(b1-4)GlcNAc(b1-6)]GalNAc
# Summary of the method: as §1
# [33] = molecular target: Neu5Ac(a2-3)Gal(b1-4)GlcNAc(b1-3)Gal(b1-4)GlcNAc(b1-6)[Gal(b1-3)]GalNAc
# Summary of the method: as §1
# [34] = molecular target: Neu5Ac(a2-3)Gal(b1-4)GlcNAc(b1-3)Gal(b1-4)[Fuc(a1-3)]GlcNAc
# Summary of the method: as §1
# [35] = molecular target: Neu5Ac(a2-3)Gal(b1-4)GlcNAc(b1-3)GalNAc
# Summary of the method: as §1
# [36] = molecular target: Neu5Ac(a2-3)Gal(b1-4)GlcNAc(b1-3)[Neu5Ac(a2-3)Gal(b1-4)GlcNAc(b1-6)]GalNAc
# Summary of the method: as §1
# [37] = molecular target: Neu5Ac(a2-3)Gal(b1-4)GlcNAc(b1-6)GalNAc
# Summary of the method: as §1
binder,measurement,setting,value
B1,glycan array binding signal (z-score),[1],0.236
same,glycan array binding signal (z-score),[2],-0.384
same,glycan array binding signal (z-score),[3],-0.639
same,glycan array binding signal (z-score),[4],-0.146
same,glycan array binding signal (z-score),[5],-0.022
same,glycan array binding signal (z-score),[6],-0.095
same,glycan array binding signal (z-score),[7],0.962
same,glycan array binding signal (z-score),[8],0.401
same,glycan array binding signal (z-score),[9],0.718
same,glycan array binding signal (z-score),[10],-0.488
same,glycan array binding signal (z-score),[11],-0.12
same,glycan array binding signal (z-score),[12],0.501
same,glycan array binding signal (z-score),[13],0.058
same,glycan array binding signal (z-score),[14],-0.169
same,glycan array binding signal (z-score),[15],-0.392
same,glycan array binding signal (z-score),[16],1.59
same,glycan array binding signal (z-score),[17],-0.184
same,glycan array binding signal (z-score),[18],0.815
same,glycan array binding signal (z-score),[19],-1.31
same,glycan array binding signal (z-score),[20],1.7
same,glycan array binding signal (z-score),[21],-0.955
same,glycan array binding signal (z-score),[22],-0.205
same,glycan array binding signal (z-score),[23],-0.567
same,glycan array binding signal (z-score),[24],-0.37
same,glycan array binding signal (z-score),[25],-0.054
same,glycan array binding signal (z-score),[26],1.11
same,glycan array binding signal (z-score),[27],-0.007
same,glycan array binding signal (z-score),[28],2.28
same,glycan array binding signal (z-score),[29],-0.435
same,glycan array binding signal (z-score),[30],2.15
same,glycan array binding signal (z-score),[31],-0.012
same,glycan array binding signal (z-score),[32],0.525
same,glycan array binding signal (z-score),[33],-0.747
same,glycan array binding signal (z-score),[34],-0.346
same,glycan array binding signal (z-score),[35],-0.108
same,glycan array binding signal (z-score),[36],0.39
same,glycan array binding signal (z-score),[37],0.215

# Shown tab-delimited: part of the list above
binder	measurement	setting	value
B1	glycan array binding signal (z-score)	[2]	-0.384
same	glycan array binding signal (z-score)	[3]	-0.639
